Test [1] concerns the target T1, ATP5F1C (human (endogenous in HT29)) (UniProt P36542).
T1 sequence: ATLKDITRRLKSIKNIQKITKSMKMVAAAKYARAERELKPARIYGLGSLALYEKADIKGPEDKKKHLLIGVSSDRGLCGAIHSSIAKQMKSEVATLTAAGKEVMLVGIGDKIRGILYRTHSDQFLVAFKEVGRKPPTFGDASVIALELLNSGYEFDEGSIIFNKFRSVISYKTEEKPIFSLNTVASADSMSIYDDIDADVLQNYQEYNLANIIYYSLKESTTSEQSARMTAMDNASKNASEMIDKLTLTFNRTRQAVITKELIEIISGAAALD
Nature of the test: SEC; SEC-MS as a1, only the HSP90i condition: HT29 cells treated 8 h with 62.5 nM tanespimycin. On the technique in general: In gel filtration, larger molecules generally elute earlier.

By UniProt entry, the sequences of proteins in these tests, tags left out. Residues count along the entry.
UniProt P25705, residues 44-553: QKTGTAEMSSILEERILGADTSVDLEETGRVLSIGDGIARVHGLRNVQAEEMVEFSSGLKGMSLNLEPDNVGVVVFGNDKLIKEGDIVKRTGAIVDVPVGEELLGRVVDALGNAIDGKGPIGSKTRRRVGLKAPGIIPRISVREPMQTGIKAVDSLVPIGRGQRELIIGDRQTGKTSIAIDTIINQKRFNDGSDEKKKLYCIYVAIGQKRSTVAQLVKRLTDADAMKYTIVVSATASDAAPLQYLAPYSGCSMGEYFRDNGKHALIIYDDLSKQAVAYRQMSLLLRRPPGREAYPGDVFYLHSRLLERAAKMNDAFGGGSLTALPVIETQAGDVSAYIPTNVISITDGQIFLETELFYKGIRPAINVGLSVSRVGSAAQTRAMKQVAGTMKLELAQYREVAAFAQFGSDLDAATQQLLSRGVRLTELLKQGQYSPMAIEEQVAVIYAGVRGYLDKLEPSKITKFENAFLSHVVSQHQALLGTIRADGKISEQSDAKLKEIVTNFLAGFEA

The target of test [2] is T1, ATP5F1C (human (endogenous in HT29)). As to the kind of experiment: SEC; SEC-MS: HT29 lysate (sonicated in PBS without detergent) on Superose 6 10/300 GL in PBS pH 7.2, 24 fractions, each digested and read by LC-MS/MS (label-free); cells treated 8 h with DMSO or 62.5 nM tanespimycin; co-elution of endogenous proteins.

These are yes or no findings as the source states them, for the method shown. Some binding calls cover weakened binding; strength is not graded here.

As to ATP5F1A (from UniProt P25705 44-553), the binding result is listed as “binds weakly” in test [1] and “binds” in test [2].

These data come from publication PMC9898794.
